From PMC11984952
No constants are given. Whether binding was seen depends on the method and setting. Binding seen in cells or lysates may run through a third protein. Some results given as binding are weak or reduced against the parent protein; the word gives no strength. Where a sequence is shown, tags or fusion partners need not be part of it.

Amino acid sequences for entries named in this document (tags omitted). A change or cut given only in a name is not applied to a line headed by its entry. Residues count along the entry.
UniProt Q12778: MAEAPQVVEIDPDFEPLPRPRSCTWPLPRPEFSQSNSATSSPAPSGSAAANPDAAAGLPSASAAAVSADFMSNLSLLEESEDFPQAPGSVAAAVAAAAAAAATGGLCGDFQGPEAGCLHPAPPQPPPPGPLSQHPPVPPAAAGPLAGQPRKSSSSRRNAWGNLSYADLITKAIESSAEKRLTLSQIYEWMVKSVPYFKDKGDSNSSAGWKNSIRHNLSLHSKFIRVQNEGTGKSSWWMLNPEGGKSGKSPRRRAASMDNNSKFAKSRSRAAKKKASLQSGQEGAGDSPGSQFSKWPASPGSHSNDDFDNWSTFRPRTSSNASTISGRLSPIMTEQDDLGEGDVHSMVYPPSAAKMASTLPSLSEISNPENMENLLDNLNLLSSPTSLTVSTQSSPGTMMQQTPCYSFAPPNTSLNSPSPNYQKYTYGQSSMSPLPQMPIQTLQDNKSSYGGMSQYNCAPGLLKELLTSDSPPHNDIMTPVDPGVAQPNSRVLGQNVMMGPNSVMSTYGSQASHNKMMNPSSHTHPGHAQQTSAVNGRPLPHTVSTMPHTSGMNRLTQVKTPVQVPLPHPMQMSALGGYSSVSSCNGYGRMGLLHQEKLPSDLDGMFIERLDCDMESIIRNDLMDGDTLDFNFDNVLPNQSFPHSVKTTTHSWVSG
FOXO1 (250-596 aa)-3xFlag: residues 250-596 of Q12778

How the values were obtained:
[1] = target: T1, GST-fused STAMBPL1 N-terminus (1-140 aa) (UniProt Q96FJ0); experiment: pull-down; HEK293T co-transfected with pEBG-STAMBPL1-GST (full-length or truncated) and pCDH-FOXO1-notag, 48 hr; lysates incubated with Glutathione Sepharose 4B overnight at 4°C; western blot
T1 sequence: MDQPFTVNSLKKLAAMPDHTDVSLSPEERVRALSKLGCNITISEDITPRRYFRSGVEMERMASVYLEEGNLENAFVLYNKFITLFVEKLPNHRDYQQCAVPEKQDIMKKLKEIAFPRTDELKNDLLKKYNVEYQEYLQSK

[2] = target: FOXO1 (endogenous) (human (endogenous in HCC1937)) (UniProt Q12778); experiment: co-IP; endogenous proteins; HCC1937 cell lysate incubated with anti-FOXO1 antibody or rabbit IgG, then protein A/G magnetic beads; western blot for STAMBPL1
[3] = target: FOXO1 (250-596 aa)-3xFlag (UniProt Q12778); experiment: co-IP; HEK293T co-transfected with pCDH-FOXO1-3×Flag (full-length or truncated) and pEBG-STAMBPL1-GST, 48 hr; lysates incubated with anti-Flag magnetic beads overnight at 4°C; western blot

FOXO1 without tag (pCDH-FOXO1-notag) (from UniProt Q12778 1-655)
binding [1]: binds

B1: STAMBPL1 (endogenous) (protein, UniProt Q96FJ0 1-436)
chain: MDQPFTVNSLKKLAAMPDHTDVSLSPEERVRALSKLGCNITISEDITPRRYFRSGVEMERMASVYLEEGNLENAFVLYNKFITLFVEKLPNHRDYQQCAVPEKQDIMKKLKEIAFPRTDELKNDLLKKYNVEYQEYLQSKNKYKAEILKKLEHQRLIEAERKRIAQMRQQQLESEQFLFFEDQLKKQELARGQMRSQQTSGLSEQIDGSALSCFSTHQNNSLLNVFADQPNKSDATNYASHSPPVNRALTPAATLSAVQNLVVEGLRCVVLPEDLCHKFLQLAESNTVRGIETCGILCGKLTHNEFTITHVIVPKQSAGPDYCDMENVEELFNVQDQHDLLTLGWIHTHPTQTAFLSSVDLHTHCSYQLMLPEAIAIVCSPKHKDTGIFRLTNAGMLEVSACKKKGFHPHTKEPRLFSICKHVLVKDIKIIVLDLR
binding [2]: binds

B2: STAMBPL1-GST (pEBG-STAMBPL1-GST) (protein, UniProt Q96FJ0 1-436)
chain: MDQPFTVNSLKKLAAMPDHTDVSLSPEERVRALSKLGCNITISEDITPRRYFRSGVEMERMASVYLEEGNLENAFVLYNKFITLFVEKLPNHRDYQQCAVPEKQDIMKKLKEIAFPRTDELKNDLLKKYNVEYQEYLQSKNKYKAEILKKLEHQRLIEAERKRIAQMRQQQLESEQFLFFEDQLKKQELARGQMRSQQTSGLSEQIDGSALSCFSTHQNNSLLNVFADQPNKSDATNYASHSPPVNRALTPAATLSAVQNLVVEGLRCVVLPEDLCHKFLQLAESNTVRGIETCGILCGKLTHNEFTITHVIVPKQSAGPDYCDMENVEELFNVQDQHDLLTLGWIHTHPTQTAFLSSVDLHTHCSYQLMLPEAIAIVCSPKHKDTGIFRLTNAGMLEVSACKKKGFHPHTKEPRLFSICKHVLVKDIKIIVLDLR
binding [3]: binds
